No constants are given. Whether binding was seen depends on the method and setting. In cells and extracts the contact can be indirect. Some results given as binding are weak or reduced against the parent protein; the word gives no strength. For part of these data: Sequences can lack the tags named with a protein.
Key:
Test in all cases: co-IP
[1] = molecular target: T1, mCherry-cyclin F(S621G) (human) (UniProt P41002)
T1 sequence: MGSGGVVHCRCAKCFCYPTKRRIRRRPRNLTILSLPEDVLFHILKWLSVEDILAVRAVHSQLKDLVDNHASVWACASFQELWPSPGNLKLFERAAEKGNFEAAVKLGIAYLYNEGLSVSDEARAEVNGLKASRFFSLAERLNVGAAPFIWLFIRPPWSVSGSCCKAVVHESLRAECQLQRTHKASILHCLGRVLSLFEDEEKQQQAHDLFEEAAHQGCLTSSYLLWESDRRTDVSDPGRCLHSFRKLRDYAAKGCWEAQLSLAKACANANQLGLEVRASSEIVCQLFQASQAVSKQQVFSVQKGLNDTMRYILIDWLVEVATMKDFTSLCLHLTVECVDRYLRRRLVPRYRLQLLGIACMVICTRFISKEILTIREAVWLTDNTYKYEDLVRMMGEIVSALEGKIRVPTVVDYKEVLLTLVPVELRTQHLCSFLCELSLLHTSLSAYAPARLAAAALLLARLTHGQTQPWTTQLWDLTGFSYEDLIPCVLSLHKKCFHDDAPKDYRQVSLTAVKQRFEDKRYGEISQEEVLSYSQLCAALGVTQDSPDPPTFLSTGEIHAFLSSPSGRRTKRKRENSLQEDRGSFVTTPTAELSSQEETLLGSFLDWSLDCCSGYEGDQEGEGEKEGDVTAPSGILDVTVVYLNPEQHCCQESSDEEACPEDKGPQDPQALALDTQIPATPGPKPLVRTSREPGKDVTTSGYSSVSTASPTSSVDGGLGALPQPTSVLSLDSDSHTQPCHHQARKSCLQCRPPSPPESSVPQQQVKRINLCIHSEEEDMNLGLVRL

[2] = molecular target: T2, mCherry-cyclin F(WT) (human) (UniProt P41002)
T2 sequence: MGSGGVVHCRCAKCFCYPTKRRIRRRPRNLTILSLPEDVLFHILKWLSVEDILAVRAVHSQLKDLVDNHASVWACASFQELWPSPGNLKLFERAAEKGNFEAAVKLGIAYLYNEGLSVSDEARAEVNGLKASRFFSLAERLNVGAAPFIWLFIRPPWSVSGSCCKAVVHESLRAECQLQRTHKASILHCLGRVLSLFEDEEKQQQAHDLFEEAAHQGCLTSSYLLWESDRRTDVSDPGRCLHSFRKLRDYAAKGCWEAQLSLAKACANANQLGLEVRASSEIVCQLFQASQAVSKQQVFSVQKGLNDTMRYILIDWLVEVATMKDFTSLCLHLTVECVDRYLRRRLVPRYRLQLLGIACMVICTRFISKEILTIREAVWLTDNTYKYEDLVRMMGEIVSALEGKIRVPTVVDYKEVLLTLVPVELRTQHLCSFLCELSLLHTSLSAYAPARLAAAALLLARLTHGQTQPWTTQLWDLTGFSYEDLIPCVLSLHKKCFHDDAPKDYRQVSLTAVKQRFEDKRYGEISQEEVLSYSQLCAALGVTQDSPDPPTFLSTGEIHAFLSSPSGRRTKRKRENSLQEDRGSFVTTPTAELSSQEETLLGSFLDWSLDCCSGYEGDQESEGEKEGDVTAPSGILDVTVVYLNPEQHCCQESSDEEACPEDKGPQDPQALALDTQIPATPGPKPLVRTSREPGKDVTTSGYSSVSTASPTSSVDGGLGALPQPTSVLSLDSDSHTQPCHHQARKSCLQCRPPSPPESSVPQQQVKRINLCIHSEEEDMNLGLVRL

[3] = molecular target: T3, cyclin F(S621G)-flag (human) (UniProt P41002)
T3 sequence: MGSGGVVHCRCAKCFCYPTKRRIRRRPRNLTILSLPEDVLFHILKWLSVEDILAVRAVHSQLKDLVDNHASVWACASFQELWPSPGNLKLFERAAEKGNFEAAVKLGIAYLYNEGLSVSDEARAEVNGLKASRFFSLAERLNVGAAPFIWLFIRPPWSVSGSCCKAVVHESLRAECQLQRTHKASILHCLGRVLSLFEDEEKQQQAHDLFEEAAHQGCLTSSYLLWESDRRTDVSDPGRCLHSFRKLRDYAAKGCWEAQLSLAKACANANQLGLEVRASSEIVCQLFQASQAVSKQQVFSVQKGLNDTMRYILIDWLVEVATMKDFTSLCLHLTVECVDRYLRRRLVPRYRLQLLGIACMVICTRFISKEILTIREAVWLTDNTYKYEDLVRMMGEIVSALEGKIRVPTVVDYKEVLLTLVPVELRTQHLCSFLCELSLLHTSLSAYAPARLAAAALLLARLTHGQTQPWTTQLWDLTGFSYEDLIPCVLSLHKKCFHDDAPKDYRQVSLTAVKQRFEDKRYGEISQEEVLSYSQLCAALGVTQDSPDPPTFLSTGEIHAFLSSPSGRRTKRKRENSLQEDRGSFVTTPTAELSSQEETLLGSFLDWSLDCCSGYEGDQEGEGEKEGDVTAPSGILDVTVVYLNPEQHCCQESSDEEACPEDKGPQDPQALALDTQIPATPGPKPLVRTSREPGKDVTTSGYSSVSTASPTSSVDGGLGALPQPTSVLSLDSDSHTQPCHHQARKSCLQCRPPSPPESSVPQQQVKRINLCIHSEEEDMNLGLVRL

[4] = molecular target: T4, cyclin F(WT)-flag (human) (UniProt P41002)
T4 sequence: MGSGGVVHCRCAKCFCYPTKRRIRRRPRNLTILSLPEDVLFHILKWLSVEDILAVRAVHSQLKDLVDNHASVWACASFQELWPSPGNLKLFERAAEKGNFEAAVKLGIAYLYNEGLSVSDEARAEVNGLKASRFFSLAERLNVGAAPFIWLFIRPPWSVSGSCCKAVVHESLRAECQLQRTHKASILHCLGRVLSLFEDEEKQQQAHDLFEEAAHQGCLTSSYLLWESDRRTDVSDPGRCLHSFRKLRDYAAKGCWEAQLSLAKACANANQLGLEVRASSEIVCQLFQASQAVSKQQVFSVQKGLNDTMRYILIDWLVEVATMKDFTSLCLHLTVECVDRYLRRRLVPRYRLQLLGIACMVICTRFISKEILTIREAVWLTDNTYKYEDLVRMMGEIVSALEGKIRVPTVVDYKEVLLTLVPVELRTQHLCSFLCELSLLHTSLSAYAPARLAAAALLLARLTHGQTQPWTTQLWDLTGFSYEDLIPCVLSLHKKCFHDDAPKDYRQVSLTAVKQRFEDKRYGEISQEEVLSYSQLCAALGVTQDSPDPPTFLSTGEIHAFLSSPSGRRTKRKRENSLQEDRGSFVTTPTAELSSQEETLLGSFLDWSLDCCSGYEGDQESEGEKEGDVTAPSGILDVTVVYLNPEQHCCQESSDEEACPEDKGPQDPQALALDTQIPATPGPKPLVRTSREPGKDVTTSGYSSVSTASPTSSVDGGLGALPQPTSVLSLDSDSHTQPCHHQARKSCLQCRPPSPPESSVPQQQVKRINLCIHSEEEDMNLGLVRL

Measured: binding

B1: NONO (protein, UniProt Q15233 1-471)
chain: MQSNKTFNLEKQNHTPRKHHQHHHQQQHHQQQQQQPPPPPIPANGQQASSQNEGLTIDLKNFRKPGEKTFTQRSRLFVGNLPPDITEEEMRKLFEKYGKAGEVFIHKDKGFGFIRLETRTLAEIAKVELDNMPLRGKQLRVRFACHSASLTVRNLPQYVSNELLEEAFSVFGQVERAVVIVDDRGRPSGKGIVEFSGKPAARKALDRCSEGSFLLTTFPRPVTVEPMDQLDDEEGLPEKLVIKNQQFHKEREQPPRFAQPGSFEYEYAMRWKALIEMEKQQQDQVDRNIKEAREKLEMEMEAARHEHQVMLMRQDLMRRQEELRRMEELHNQEVQKRKQLELRQEEERRRREEEMRRQQEEMMRRQQEGFKGTFPDAREQEIRMGQMAMGGAMGINNRGAMPPAPVPAGTPAPPGPATMMPDGTLGLTPPTTERFGQAATMEGIGAIGGTPPAFNRAAPGAEFAPNKRRRY
binds: [1] | [2]

B2: endogenous RBM14 (protein, UniProt Q96PK6 1-669)
chain: MKIFVGNVDGADTTPEELAALFAPYGTVMSCAVMKQFAFVHMRENAGALRAIEALHGHELRPGRALVVEMSRPRPLNTWKIFVGNVSAACTSQELRSLFERRGRVIECDVVKDYAFVHMEKEADAKAAIAQLNGKEVKGKRINVELSTKGQKKGPGLAVQSGDKTKKPGAGDTAFPGTGGFSATFDYQQAFGNSTGGFDGQARQPTPPFFGRDRSPLRRSPPRASYVAPLTAQPATYRAQPSVSLGAAYRAQPSASLGVGYRTQPMTAQAASYRAQPSVSLGAPYRGQLASPSSQSAAASSLGPYGGAQPSASALSSYGGQAAAASSLNSYGAQGSSLASYGNQPSSYGAQAASSYGVRAAASSYNTQGAASSLGSYGAQAASYGAQSAASSLAYGAQAASYNAQPSASYNAQSAPYAAQQAASYSSQPAAYVAQPATAAAYASQPAAYAAQATTPMAGSYGAQPVVQTQLNSYGAQASMGLSGSYGAQSAAAATGSYGAAAAYGAQPSATLAAPYRTQSSASLAASYAAQQHPQAAASYRGQPGNAYDGAGQPSAAYLSMSQGAVANANSTPPPYERTRLSPPRASYDDPYKKAVAMSKRYGSDRRLAELSDYRRLSESQLSFRRSPTKSSLDYRRLPDAHSDYARYSGSYNDYLRAAQMHSGYQRRM
binds: [3] | [4] | [1] | [2]

— publication doi:10.1101/2020.04.30.071365
